# Whole data set: some 33,000 sequences, median “E-score (-0.5 to 0.5)” near -0.0034, cut for the highest 2% near 0.25. The list shows a part of the results.
# Target: T1, Yap3 (UniProt P38749)
# T1 sequence: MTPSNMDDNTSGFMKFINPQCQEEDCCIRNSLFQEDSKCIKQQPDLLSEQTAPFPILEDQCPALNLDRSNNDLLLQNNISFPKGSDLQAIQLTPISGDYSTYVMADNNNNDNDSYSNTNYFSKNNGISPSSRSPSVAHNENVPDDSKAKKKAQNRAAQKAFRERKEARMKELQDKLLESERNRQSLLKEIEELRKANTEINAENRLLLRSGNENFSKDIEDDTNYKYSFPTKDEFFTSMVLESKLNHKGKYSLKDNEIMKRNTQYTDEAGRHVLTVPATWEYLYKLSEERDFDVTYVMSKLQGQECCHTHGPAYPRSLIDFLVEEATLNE
# Assay: PBM E-score (8-mer binding enrichment) (E-score (-0.5 to 0.5)); higher = stronger / more preferred TF binding
# Settings: protein concentration: 100 nM; construct: GST-full length
# Procedure, shortened: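 Masliner-normalised scans of fluorescent anti-GST signal were the basis for scoring. That signal came from GST-tagged yeast transcription factors applied at about 100-200 nM to double-stranded universal all-10-mer Agilent arrays on fresh or once-stripped slides. Each ungapped eight-base word, pooled with its reverse complement, received an E-score from the Universal PBM Analysis Suite.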
row,Sequence,PBM E-score
1,AAGCCTCT,-0.159
2,AAGCTGCA,0.0959
3,TACGAACA,0.119
4,GCGCGACA,0.0138
5,GCACCAAC,-0.115
6,CAGAGCTC,-0.13
7,ACGGGCTC,-0.383
8,GAACCGTC,-0.0728
9,AGGCACAA,-0.0252
10,AGAGATCT,-0.145
11,ACGGTTCA,-0.234
12,GAGTTACC,-0.109
13,AGACGCGG,-0.0379
14,GAGGTGCC,-0.132
15,GGGAATGA,0.225
16,ATCTATTG,-0.108
17,TACGACTA,0.0834
18,GCCACTTA,0.0165
19,CAGCATAC,-0.0638
20,CCCCACTA,-0.135
21,CTATGCGA,-0.187
22,CCTTGAGA,0.13
23,AACTTAAT,0.198
24,ACATAGTA,0.0479
25,AACATATG,0.16

row,Sequence,PBM E-score
1,AGGGTAAA,0.121
2,CCAATCAA,0.0581
3,CCCGTGCG,-0.131
4,GGCTAGCA,-0.0371
5,ACCAGATC,-0.0474
6,ATAATCAT,0.344
7,CATGACCA,0.117
8,GAGTGTAA,-0.0811
9,GAGCTCGC,-0.0307
10,AGGGAACC,-0.192
11,CGATCCTA,-0.0116
12,ACAACGCG,0.0663
13,AAGGCGGC,-0.325
14,AGGGCAAT,-0.122
15,CCAGTATC,-0.0113
16,AAGGAAAA,0.156
17,CTTGCCCC,-0.225
18,ATATCTTC,0.222
19,GAATGGGA,-0.11
20,GATCGTCC,-0.0579
21,ACTACGTC,-0.0702
22,GCGCAGTA,0.109
23,AGAACAGG,-0.157
24,CATAATCC,0.0889
25,TTGTTAAA,-0.0474

# Exported tab-delimited: entries from further up.
row	Sequence	PBM E-score
15	CCAGTATC	-0.0113
17	CTTGCCCC	-0.225

# Additional results:

row,Sequence,PBM E-score
1,AAGCACCC,-0.0712
2,CACGGTTC,-0.281
3,CCGAATTA,-0.0509
4,ATCGAACG,-0.00405
5,AAATATGA,0.224
6,ATGACGCC,-0.074
7,ACCTACCT,-0.0402
8,GGTGTCGA,0.0463
9,CTGAGGAC,-0.0551
10,ACATCTGC,-0.128
11,AAGTGTCG,-0.0231
12,CGTCGGTC,-0.0654
13,ATCCACAC,-0.0157
14,TACTTCCA,0.137
15,GATGATCA,0.0201
16,GCCATACA,0.0174
17,CGCGCTAG,0.0524
18,GAGCACGA,-0.0358
19,ACTAATCG,0.222
20,AGCTAGAT,0.0423
21,GGCCGTAA,0.022
22,ATAGGAGA,-0.198
23,TAGGTTCA,0.02
24,CCCCTTGA,0.016
25,GTTAAGCA,0.0686

row,Sequence,PBM E-score
1,CCGGAATA,0.0462
2,ATCAAATG,0.0579
3,GCAGACAC,0.0149
4,GTTAGCTA,-0.0703
5,CGGCATGC,0.0617
6,AGAATGCA,0.11
7,TGCCTACA,0.0232
8,ACTAGGGG,-0.199
9,AATGTAAA,0.231
10,AGGTATAA,0.0868
11,CGTCGTGC,0.0894
12,GTGGTTAA,0.14
13,GCGGGGAC,-0.0993
14,CACGCATG,-0.184
15,AGATCGTG,-0.00676
16,AAGGCCCA,-0.135
17,CCTGGTCA,-0.0725
18,AATCATCT,-0.0336
19,ACCTAGTA,-0.119
20,AAGATAAG,0.0204
21,CACGGCGG,-0.206
22,CTATACGA,-0.0189
23,ACCTATCA,-0.0173
24,ATACGCAT,0.134
25,ATATGCTC,0.0426

row,Sequence,PBM E-score
1,TTCTGCAA,0.121
2,GGCCTTAA,0.116
3,TCTGCCAA,-0.133
4,CCATATGG,0.0953
5,AAGCAGGA,0.0482
6,CTGAGTCA,0.222
7,AACCAAGT,0.119
8,ATGAGAGA,0.136
9,ATGTGACC,-0.136
10,GGGCTGTA,-0.239
11,TACCGGTA,0.115
12,AATGCGGA,0.0814
13,AGACGATA,0.0424
14,AGACCTGC,-0.25
15,AGTCTGCC,-0.249
16,AACCGAAA,0.0863
17,AAGACTTA,-0.0694
18,CCCCCAGC,-0.372
19,CATACCGA,-0.0505
20,GGTCCCAA,-0.151
21,CGACTGGA,-0.0599
22,CTCGACTC,-0.00468
23,GAAATTCC,0.0452
24,ATGGTAAG,-0.0982
25,ACCTACAA,0.0492

row,Sequence,PBM E-score
1,AAATAGTT,0.218
2,AACGCGCC,-0.0619
3,CAAACATC,0.0509
4,ACAGGTAC,-0.0601
5,TATCAGGA,0.00895
6,GCGGACGC,-0.218
7,CCCATTGC,-0.064
8,ACAGTTCA,0.105
9,GGATGGAC,-0.102
10,CATTCTGA,0.141
11,CTACCCGC,-0.184
12,CCTCCCGA,-0.338
13,GAACGATC,0.0575
14,TCACTGGA,-0.0545
15,GTCTGTAA,-0.0725
16,ATCACTGC,0.0769
17,CGCCTCCA,-0.0788
18,GCGCTCAA,-0.131
19,CACCCTAA,0.0377
20,TAAATGAA,0.117
21,GGCCCAAC,-0.24
22,ACCACATG,0.17
23,CCGGAACA,-0.0746
24,GCTCTGAC,-0.248
25,CTGCCAAC,-0.105

row,Sequence,PBM E-score
1,ACCCCGTC,-0.236
2,ACTTAGGC,-0.212
3,AGTTAAAC,0.15
4,AACCATGC,0.132
5,ACGGCCAG,-0.115
6,AAAGTCAA,0.0668
7,AAATCAAT,0.199
8,CGGCCCCG,-0.423
9,AGGGTTAC,-0.219
10,AGTCCAGG,-0.167
11,CAACCGCG,0.323
12,AACAAGAT,0.154
13,CGATGCAC,-0.124
14,CTATCTAA,0.0306
15,GCAGGCAA,-0.0308
16,AGGGTTTC,-0.0867
17,GCTGTCAC,-0.151
18,CGGTTCCA,-0.161
19,GATCACAC,-0.0519
20,CACTCTAG,-0.0617
21,CCCGGAGG,-0.417
22,ACAACGTA,0.0865

# Quoted at random: 6 records from the list
row,Sequence,PBM E-score
18,CGGTTCCA,-0.161
13,CGATGCAC,-0.124
19,GATCACAC,-0.0519
5,ACGGCCAG,-0.115
14,CTATCTAA,0.0306
21,CCCGGAGG,-0.417

# Three entries from above, as tab-separated lines:
row	Sequence	PBM E-score
8	CGGCCCCG	-0.423
15	GCAGGCAA	-0.0308
16	AGGGTTTC	-0.0867

# Reference: the supplement of paper PMC3334620
